This note sets out measurements from article doi:10.1101/2022.08.24.504515.

The chains behind the UniProt entries cited, without tags or fusion partners. Where a name states a change or a piece, a line headed by the entry shows the natural chain unless it says otherwise.
UniProt Q9UQB8: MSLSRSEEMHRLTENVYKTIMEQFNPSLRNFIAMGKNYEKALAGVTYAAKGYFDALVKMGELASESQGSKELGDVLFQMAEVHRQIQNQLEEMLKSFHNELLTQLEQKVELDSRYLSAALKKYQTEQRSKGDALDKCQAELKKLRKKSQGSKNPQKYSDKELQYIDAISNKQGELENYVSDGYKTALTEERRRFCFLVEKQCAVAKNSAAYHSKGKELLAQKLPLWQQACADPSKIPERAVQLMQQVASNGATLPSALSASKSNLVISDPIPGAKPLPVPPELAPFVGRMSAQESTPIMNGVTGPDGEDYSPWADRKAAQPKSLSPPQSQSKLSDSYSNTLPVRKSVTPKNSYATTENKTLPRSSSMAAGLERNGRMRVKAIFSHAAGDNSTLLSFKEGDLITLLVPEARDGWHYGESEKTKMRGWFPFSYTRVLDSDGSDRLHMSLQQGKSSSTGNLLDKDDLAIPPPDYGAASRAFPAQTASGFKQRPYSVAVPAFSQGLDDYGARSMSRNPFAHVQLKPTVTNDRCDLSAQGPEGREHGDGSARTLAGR
UniProt Q03173: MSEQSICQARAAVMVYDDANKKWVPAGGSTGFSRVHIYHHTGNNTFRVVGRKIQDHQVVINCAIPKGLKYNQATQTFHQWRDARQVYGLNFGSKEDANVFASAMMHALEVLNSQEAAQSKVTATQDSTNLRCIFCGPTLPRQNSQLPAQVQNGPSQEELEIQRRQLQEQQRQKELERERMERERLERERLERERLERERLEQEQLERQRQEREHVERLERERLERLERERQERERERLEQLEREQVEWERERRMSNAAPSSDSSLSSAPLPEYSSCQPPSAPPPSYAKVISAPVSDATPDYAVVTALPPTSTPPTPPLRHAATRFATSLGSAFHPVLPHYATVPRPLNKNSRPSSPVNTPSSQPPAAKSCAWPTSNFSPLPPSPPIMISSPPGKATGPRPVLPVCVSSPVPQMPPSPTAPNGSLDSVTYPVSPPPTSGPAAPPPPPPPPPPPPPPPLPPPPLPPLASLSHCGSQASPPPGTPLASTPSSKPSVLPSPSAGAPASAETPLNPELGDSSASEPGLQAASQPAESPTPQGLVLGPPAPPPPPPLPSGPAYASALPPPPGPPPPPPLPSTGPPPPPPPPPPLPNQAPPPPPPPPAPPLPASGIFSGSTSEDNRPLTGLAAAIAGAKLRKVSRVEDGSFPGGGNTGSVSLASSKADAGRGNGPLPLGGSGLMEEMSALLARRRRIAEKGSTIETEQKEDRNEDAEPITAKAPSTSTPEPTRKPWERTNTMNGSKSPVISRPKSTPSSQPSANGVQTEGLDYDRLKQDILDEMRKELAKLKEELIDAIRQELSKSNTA
UniProt A0A571BF02: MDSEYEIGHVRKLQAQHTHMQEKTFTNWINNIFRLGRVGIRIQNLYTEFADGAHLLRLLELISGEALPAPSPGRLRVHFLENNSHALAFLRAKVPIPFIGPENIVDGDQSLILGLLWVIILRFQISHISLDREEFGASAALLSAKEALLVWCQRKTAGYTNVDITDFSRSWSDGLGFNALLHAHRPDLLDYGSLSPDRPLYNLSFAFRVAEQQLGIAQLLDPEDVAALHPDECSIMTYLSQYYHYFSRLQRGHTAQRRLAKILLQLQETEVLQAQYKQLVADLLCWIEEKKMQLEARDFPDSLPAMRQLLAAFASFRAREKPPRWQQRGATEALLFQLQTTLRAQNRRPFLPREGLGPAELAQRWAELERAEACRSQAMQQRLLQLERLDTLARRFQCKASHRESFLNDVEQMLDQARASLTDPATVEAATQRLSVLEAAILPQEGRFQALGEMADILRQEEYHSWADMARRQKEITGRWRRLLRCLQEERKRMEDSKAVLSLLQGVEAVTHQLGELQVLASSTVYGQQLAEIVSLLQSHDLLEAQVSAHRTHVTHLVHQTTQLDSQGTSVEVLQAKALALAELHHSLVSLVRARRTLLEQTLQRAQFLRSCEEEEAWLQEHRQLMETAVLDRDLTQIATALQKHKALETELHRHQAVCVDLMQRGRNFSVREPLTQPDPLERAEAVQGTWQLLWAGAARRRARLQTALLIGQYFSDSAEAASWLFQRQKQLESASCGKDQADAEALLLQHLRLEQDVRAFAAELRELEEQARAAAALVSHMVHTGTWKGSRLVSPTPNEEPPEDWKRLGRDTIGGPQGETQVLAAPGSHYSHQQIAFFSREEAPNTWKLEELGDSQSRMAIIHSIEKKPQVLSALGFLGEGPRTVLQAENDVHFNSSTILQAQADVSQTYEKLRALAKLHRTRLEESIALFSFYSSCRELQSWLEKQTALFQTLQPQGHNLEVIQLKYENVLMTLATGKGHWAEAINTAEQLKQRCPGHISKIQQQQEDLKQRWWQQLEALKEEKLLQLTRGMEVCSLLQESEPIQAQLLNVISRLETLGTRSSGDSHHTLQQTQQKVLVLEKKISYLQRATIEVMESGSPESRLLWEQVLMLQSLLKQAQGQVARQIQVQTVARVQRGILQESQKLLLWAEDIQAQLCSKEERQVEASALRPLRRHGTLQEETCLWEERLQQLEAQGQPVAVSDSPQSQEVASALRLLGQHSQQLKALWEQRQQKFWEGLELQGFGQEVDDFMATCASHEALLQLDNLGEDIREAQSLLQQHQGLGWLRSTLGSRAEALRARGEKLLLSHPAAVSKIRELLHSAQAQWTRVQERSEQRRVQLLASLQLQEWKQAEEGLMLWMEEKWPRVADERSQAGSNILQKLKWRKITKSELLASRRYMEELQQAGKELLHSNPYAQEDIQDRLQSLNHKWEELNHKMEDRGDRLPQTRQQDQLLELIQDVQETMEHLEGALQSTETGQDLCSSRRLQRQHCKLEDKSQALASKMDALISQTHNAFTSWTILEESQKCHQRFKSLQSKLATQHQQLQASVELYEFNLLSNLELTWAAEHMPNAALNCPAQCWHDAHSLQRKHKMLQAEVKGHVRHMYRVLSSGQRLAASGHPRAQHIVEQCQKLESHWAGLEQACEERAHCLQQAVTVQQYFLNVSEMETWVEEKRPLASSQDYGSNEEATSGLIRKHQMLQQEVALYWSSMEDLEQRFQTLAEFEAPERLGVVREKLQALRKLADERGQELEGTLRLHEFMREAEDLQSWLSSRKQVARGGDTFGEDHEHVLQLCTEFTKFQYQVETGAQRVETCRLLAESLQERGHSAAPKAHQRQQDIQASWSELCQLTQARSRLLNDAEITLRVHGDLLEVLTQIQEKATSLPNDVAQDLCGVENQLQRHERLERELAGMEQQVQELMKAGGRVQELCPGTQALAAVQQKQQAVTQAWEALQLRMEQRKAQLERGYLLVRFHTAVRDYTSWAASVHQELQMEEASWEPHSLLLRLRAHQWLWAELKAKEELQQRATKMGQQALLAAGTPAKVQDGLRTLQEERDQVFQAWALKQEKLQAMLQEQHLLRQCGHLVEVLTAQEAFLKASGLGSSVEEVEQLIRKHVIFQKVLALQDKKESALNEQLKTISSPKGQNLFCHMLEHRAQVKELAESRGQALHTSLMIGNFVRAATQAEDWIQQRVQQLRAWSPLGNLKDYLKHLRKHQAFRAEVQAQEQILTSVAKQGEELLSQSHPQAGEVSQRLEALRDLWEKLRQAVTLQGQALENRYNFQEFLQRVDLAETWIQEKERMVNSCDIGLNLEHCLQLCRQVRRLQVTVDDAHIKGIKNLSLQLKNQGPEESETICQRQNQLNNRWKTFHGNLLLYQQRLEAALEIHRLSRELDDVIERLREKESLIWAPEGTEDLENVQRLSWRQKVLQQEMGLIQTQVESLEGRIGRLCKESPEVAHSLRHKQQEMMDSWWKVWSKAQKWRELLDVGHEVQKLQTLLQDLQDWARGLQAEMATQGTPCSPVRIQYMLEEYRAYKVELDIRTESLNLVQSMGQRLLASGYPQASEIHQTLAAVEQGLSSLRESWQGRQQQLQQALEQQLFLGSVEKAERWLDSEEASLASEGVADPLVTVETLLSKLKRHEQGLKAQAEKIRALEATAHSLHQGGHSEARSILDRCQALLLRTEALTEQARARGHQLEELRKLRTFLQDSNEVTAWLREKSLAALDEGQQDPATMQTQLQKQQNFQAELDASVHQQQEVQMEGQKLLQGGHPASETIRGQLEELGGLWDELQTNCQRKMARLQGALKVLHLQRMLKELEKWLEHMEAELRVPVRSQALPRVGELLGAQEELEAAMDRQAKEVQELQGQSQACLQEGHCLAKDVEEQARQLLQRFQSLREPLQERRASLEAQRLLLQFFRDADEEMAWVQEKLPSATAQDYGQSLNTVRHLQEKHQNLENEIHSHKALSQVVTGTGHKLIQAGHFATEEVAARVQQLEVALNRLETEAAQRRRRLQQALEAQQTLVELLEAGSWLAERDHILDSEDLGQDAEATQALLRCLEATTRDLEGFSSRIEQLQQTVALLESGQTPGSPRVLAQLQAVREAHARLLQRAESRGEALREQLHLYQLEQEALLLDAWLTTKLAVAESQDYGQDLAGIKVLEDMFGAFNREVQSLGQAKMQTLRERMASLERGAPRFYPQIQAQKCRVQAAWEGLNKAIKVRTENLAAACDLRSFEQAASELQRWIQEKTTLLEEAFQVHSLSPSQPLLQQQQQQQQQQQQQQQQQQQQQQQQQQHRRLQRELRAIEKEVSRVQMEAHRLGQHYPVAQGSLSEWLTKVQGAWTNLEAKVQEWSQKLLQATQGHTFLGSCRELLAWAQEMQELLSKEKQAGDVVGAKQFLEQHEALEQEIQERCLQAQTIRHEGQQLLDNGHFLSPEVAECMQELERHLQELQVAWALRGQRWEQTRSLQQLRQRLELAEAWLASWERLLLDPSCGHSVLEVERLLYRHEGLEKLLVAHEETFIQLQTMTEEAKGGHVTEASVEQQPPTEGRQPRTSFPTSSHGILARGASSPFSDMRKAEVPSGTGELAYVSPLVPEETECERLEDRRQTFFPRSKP
UniProt P13020: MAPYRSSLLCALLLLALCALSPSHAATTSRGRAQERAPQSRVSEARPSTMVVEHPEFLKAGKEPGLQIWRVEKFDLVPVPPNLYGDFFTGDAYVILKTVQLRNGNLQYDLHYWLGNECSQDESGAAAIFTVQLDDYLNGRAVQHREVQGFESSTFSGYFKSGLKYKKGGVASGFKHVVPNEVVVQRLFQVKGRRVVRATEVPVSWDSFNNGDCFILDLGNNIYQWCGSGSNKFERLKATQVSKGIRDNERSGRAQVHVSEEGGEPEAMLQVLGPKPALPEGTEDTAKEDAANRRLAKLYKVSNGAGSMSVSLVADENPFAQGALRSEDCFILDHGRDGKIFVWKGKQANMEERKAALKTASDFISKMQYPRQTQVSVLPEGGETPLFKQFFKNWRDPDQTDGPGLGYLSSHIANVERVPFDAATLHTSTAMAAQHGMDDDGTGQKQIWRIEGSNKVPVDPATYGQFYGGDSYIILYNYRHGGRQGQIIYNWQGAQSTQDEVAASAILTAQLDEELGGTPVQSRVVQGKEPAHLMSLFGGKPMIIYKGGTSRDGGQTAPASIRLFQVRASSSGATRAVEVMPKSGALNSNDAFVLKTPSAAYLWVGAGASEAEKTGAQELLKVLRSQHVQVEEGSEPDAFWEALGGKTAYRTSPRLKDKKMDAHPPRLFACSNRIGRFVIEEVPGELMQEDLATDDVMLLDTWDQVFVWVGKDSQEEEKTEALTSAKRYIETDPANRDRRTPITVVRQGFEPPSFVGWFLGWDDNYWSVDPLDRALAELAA
UniProt P62962: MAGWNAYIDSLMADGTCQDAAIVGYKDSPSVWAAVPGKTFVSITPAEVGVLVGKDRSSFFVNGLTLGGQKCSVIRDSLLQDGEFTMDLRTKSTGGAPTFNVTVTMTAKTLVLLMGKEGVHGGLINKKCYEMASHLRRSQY

These are yes or no findings as the source states them, for the method shown. In cells and extracts the contact can be indirect. Here binding means that the protein was enriched with, or labelled near, the bait; the list need not be complete.

For the experiment, the target named is IRSp53-EGFP (UniProt Q9UQB8). Kind of experiment: affinity purification with mass spectrometry.
For the substance Arpc1b (from UniProt Q9WV32 1-372), the binding result is “binds”.

Turning to Enah (from UniProt Q03173 1-802), the binding result was “binds”.

Consider Myh3 (from UniProt P13541 1-1940), for which the binding result is recorded as “binds”.

With Sptbn5 (from UniProt A0A571BF02 1-3624), the binding entry was “binds”.

For gelsolin (from UniProt P13020), the binding result is reported as “binds”.

For the substance profilin (from UniProt P62962 1-140), the binding entry is “binds”.
